For the test, the target named is T1, BCAP (adaptor protein, product of Pik3ap1) (mouse (endogenous in primary CD4+ T cells)) (UniProt Q9EQ32).
T1 sequence (chain, phosphotyrosine after TCR stimulation (residues not told)): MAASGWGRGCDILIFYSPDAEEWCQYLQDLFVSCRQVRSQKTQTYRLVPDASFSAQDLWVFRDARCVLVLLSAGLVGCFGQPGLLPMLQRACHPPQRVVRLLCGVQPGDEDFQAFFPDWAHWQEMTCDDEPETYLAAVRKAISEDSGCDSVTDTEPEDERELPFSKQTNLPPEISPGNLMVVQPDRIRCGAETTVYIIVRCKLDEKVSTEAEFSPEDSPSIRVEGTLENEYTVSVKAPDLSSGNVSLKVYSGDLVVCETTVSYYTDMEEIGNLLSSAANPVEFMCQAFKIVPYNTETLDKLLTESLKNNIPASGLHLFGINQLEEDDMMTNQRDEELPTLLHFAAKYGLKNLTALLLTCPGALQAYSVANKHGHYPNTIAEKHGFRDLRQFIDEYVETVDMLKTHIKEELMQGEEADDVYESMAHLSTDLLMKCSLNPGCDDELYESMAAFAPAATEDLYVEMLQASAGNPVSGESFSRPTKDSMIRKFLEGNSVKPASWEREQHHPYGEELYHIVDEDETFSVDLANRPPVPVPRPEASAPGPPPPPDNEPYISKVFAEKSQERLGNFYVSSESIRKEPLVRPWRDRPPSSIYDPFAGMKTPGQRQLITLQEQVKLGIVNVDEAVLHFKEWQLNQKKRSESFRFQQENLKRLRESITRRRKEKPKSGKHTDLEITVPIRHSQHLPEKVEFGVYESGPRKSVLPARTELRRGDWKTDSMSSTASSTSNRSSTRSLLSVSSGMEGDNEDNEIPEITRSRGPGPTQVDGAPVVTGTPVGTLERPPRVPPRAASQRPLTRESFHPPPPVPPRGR
The experiment in a line: co-IP; rabbit polyclonal anti-mouse-BCAP and protein-A-Sepharose on lysates of CD4+ T cell blasts stimulated by CD3-CD4-crosslinking; immunoblot for p85. (In general: In western blotting, separated proteins are transferred to a membrane and probed.)

No constants are given. Whether binding was seen depends on the method and setting. Binding seen in cells or lysates may run through a third protein. Binding calls can cover weak binding; strength is not graded here.

This note sets out measurements from PMC7982423.

Turning to “p85 (PI3K regulatory subunit, isoform not told)”, the binding entry is listed as “binds”.
